Results as given in patent publication US20100298252A1, “METHODS AND COMPOSITIONS FOR OPHTHALMIC TREATMENT OF FUNGAL AND BACTERIAL INFECTIONS” (priority 2004, published 2010).
For at least one compound, name, drawing or mass did not settle the structure.

What was measured:
Fusarium sp. 2 = format: cell-based; conditions: Tricide 540 ug/ml
Fusarium sp. 1 = format: cell-based; conditions: Tricide 540 ug/ml;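 also: mean MIC 50 and MIC 90 values against fungal isolates, with percent decrease in MIC when the antifungal is combined with Tricide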

CCC(C)n1ncn(-c2ccc(N3CCN(c4ccc(OCC5COC(Cn6cncn6)(c6ccc(Cl)cc6Cl)O5)cc4)CC3)cc2)c1=O (stereo not drawn) [Itraconazole, itraconazole]
0-<0.05: MIC 50 combined with Tricide (Fusarium sp. 2) | MIC 90 combined with Tricide (Fusarium sp. 2) | MIC 50 combined with Tricide (Fusarium sp. 1)
